These results are taken from paper PMC6330308, “Light-Induced Thiol Oxidation of Recoverin Affects Rhodopsin Desensitization” (Frontiers in Molecular Neuroscience, 2018).

Results are given in words; binding and its absence hold for the method and conditions named. Some entries that bind do so weakly or less than the wild type.

For assay [1], the target named is Rabbit recoverin (rabbit (endogenous in retina)) (UniProt G1T9K5). The experiment in a line: reducing Western blotting; the same recoverin fractions from rat and rabbit retinas under reducing conditions; anti-recoverin antibodies.
Assay [2] shares this target. Nature of the assay: non-reducing Western blotting; recoverin immunoaffinity-purified from retinal extracts of illuminated (rat: 2,500 lx, 14 h; rabbit: 2,200 lx or 30,000 lx, 3 h) or dark-adapted eyes; non-reducing conditions; anti-recoverin antibodies.

B1: Rabbit recoverin (protein, UniProt G1T9K5 1-202)
chain: MGNSKSGALSKEILEDLQLNTKFTEEELCTWYQSFLKECPSGRITRQEFESIYAKFFPDADPKAYAQHVFRSFDANSDGTLDFKEYVIALHMTTAGKPSQKLEWAFSLYDVDGNGAISKNEVLEIVMAIFKMINPEDVKHLPDDENTPEKRTEKIWGFFGKKDDDKLTEEEFIEGTMANKEILRLIQFEPQKVKERIKEKKQ
In the case of B1, the binding result in assay [1] is “no binding (condition: under reducing conditions)”; in assay [2], “binds”.
